# From PubChem BioAssay AID504834 (National Center for Advancing Translational Sciences (NCATS), 2011)
# Where “and” joins values, the source holds several entries; their conditions need not be identical. Identical values can stand only once. Screen size: about 320,000 compounds; about 22,000 (6.9%) were called active. The inconclusive results got no clear call from the source; some entries with a clear call stand among them for comparison. Calls follow the shape of the dose curve; as a rule, active = well fitted inhibition curve with a large enough effect; inconclusive = small, poorly fitted or top-dose-only effect, or another doubt; inactive = no such curve, though single readings can be large or run the other way. A potency beside an inconclusive call is a rough fit, not a confirmed value.
# Experiment: Primary qHTS for delayed death inhibitors of the malarial parasite plastid, 96 hour incubation
# Conditions: P. falciparum luciferase reporter growth; series mostly up to 28.7 µM
# Method in brief: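 Luminescence readout: decreased luciferase signal marks inhibited growth of reporter-expressing P. falciparum in infected red cells (2% hematocrit, 0.05% parasitemia final), exposed to compound two generations (96 h, 37 C, 5% CO2).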
# Potency is read from the fitted curve at half-maximal effect.
row,SMILES,Potency
1,CC1=Nc2ccccc2/C1=C/c1c(N)n2c(S(=O)(=O)C(C)C)nsc2nc1=O,"inconclusive: 5.22 µM [inhibitor, partial curve, poor fit]"
2,CN(/C=C/C(=C\C=[N+](C)c1ccccc1)OCCCS(=O)(=O)[O-])c1ccccc1,inactive
3,Cc1ccc(N(CC2CO2)S(=O)(=O)c2ccc(C)cc2)cc1 (stereo unspecified),"inconclusive: 16.5 µM [inhibitor, single point]"
4,Cc1nn(-c2ccccc2)c(Cl)c1C(=O)N(C)c1nc(-c2ccc(F)cc2)cs1,active: 7.38 µM
5,Cc1ccc(CN=c2c([N+](=O)[O-])nn(-c3ccc4c(c3)OCCO4)n2O)cc1,"inconclusive: 6.57 µM [inhibitor, partial curve, poor fit]"
6,CCn1c(SCC#N)nc2c(c1=O)C1(CCCC1)Cc1ccccc1-2,inactive
7,CCc1ccc(NC(=O)NCCN2CCN(c3ccc(OC)cc3)CC2)cc1,active: 13.1 µM
8,CCOC(=O)c1c(C)[nH]c(C(=O)OCCOc2ccc(Cl)cc2)c1C,inactive
9,COc1ccc(N(CC(=O)NCCc2ccccc2)C(=O)CCC(=O)Nc2ccccn2)cc1,"inconclusive: 6.57 µM [inhibitor, partial curve, poor fit]"
10,O=C(C1CCCN(Cc2ccccc2)C1)N1CCCCC1 (stereo unspecified),"inconclusive: 16.5 µM [inhibitor, partial curve, poor fit]"
11,CCN(CC)c1ccc(N=Cc2c(O)n(-c3ccc(Cl)cc3)c(=O)[nH]c2=O)cc1,"inconclusive: 16.5 µM [inhibitor, partial curve, poor fit]"
12,O=C(N=Nc1c(O)[nH]c2ccc(F)cc12)C1COc2ccccc2O1 (stereo unspecified),inactive
13,Cc1ccc(OCC(=O)NNC(=O)Cc2ccc(S(=O)(=O)N3CCOCC3)s2)cc1,"inconclusive: 10.4 µM [inhibitor, single point]"
14,CCOC(=O)C1CCN(C(=O)c2ccc(OCC(=O)Nc3cccc(C(F)(F)F)c3)c(OC)c2)CC1,"inconclusive: 0.37 µM [inhibitor, full curve, poor fit]"
15,O=S(=O)(c1ccccc1Oc1ccc(Cl)cc1Cl)N1CCCCC1,"inconclusive: 2.94 µM [inhibitor, partial curve, poor fit]"
16,COC(=O)c1c[nH]c(=O)c2ccccc12,"inconclusive: 11.7 µM [inhibitor, single point]"
17,COc1cc(C(=O)Nc2ccc3c(c2)OCO3)ccc1-n1cnnn1,"inconclusive: 9.28 µM [inhibitor, single point]"
18,CCc1ccc(CNC(=O)CCC(=O)n2ncc3cc(C)ccc32)cc1,inactive
19,Cc1cccc(NC(=O)CCS(=O)(=O)c2cccc3nsnc23)c1C,"inconclusive: 10.4 µM [inhibitor, partial curve]"
20,Nc1ccccc1Nc1nc2ccccc2[nH]1,active: 10.4 µM
21,CCOC(=O)C1CCN(S(=O)(=O)c2ccc3[nH]c4c(c3c2)CCCC4)CC1,active: 10.4 µM

row,SMILES,Potency
1,COc1ccc(C)cc1NC(=O)CSc1nnc(-c2ccccn2)n1Cc1ccco1,inactive
2,Cc1ccccc1Nc1nnc(SCC(=O)N(C)C2CCS(=O)(=O)C2)s1 (stereo unspecified),"inconclusive: 13.1 µM [inhibitor, partial curve]"
3,O=C(O)c1cc2ncc(-c3[nH]ncc3[N+](=O)[O-])cn2n1,"inconclusive: 2.08 µM [inhibitor, full curve, poor fit]"
4,O=C(NCCF)[C@H]1C[C@@H]1[C@H](NP(=O)(c1ccccc1)c1ccccc1)c1ccccc1,"inconclusive: 18.5 µM [inhibitor, single point]"
5,CC(=O)NC(c1cc(F)c2cccnc2c1O)C1CC1 (stereo unspecified),"inconclusive: 11.7 µM [inhibitor, single point] and inconclusive: 18.5 µM [inhibitor, single point]"
6,COc1ccc(NC(=O)COc2ccccc2Cc2ccccc2)cn1,"inconclusive: 6.57 µM [inhibitor, partial curve]"
7,COc1ccc2c(c1)OC[C@H]1[C@H]2N2C(=O)c3cc(Br)ccc3NC(=O)[C@@]2(C)[C@H]1c1ccccc1,active: 5.22 µM
8,Cc1ccccc1OCC(O)Cn1c(N2CCN(c3ccccc3)CC2)nc2c1c(=O)[nH]c(=O)n2C (stereo unspecified),"inconclusive: 1.04 µM [inhibitor, partial curve, poor fit]"
9,O=C(O)c1cc2cccc(S(=O)(=O)N3CCOCC3)c2cc1O,"inconclusive: 18.5 µM [inhibitor, single point]"
10,CCC(C)(C)NC(=O)c1cc(OC)c(OC)cc1[N+](=O)[O-],"inconclusive: 0.0052 µM [inhibitor, full curve, poor fit]"
11,CCOC(=O)CC1C(=O)NCCN1c1nc2c(C)cccn2c(=O)c1/C=C1\SC(=S)N(CC(C)C)C1=O (stereo unspecified),"inconclusive: 0.586 µM [inhibitor, partial curve, poor fit]"
12,CN(C)c1cccc(NC(=O)NC2(C)CCS(=O)(=O)C2)c1 (stereo unspecified),"inconclusive: 2.62 µM [inhibitor, full curve, poor fit]"
13,CC(=O)Nc1nc(SCc2ccc(Cl)cc2Cl)n[nH]1,"inconclusive: 0.0828 µM [inhibitor, full curve, poor fit]"
14,CCOc1cc(/C=C(/NC(C)=O)C(=O)O)cc(Cl)c1OCc1cccc(Br)c1,inactive
15,O=C(N/N=C/c1ccc2c(c1)OCO2)c1cc(-c2ccncc2)nc2ccccc12,"inconclusive: 8.28 µM [inhibitor, partial curve]"
16,C=CCn1c(SCC(=O)Nc2ccc(Cl)cn2)nnc1C1CC1,"inconclusive: 11.7 µM [inhibitor, single point]"
17,CCOC(=O)COc1c(OC)cc(Cl)cc1C1Nc2ccccc2C(=O)N1c1cccc(C)c1 (stereo unspecified),"inconclusive: 0.0738 µM [inhibitor, full curve, poor fit]"
18,CN(C)c1ccc(O)c2c1CC1CC3[C@@H](N(C)C)C(=O)C(C(N)=O)=C(O)[C@]3(O)C(=O)C1=C2O (stereo partly specified),active: 0.329 µM
19,COc1ccc(-n2c(SCC(=O)NC3CCCCC3)nc3ccsc3c2=O)cc1,inactive
20,COc1cc(/C=N/NC(=O)c2ccc(CSc3nncn3C)cc2)ccc1OCC(=O)N1CC(C)OC(C)C1 (stereo unspecified),"inconclusive: 9.28 µM [inhibitor, partial curve, poor fit]"
